In the supplement of paper PMC3334620:
Over roughly 33,000 sequences, “E-score (-0.5 to 0.5)” has its median near -0.016; the highest 2% begin near 0.3. Some of the results follow.

What follows are sequences tested against T1, Yer184c (UniProt P39961) (assay: PBM E-score (8-mer binding enrichment) (E-score (-0.5 to 0.5)); higher = stronger / more preferred TF binding). Details: protein concentration: 100 nM; construct: GST-full length.
T1 sequence: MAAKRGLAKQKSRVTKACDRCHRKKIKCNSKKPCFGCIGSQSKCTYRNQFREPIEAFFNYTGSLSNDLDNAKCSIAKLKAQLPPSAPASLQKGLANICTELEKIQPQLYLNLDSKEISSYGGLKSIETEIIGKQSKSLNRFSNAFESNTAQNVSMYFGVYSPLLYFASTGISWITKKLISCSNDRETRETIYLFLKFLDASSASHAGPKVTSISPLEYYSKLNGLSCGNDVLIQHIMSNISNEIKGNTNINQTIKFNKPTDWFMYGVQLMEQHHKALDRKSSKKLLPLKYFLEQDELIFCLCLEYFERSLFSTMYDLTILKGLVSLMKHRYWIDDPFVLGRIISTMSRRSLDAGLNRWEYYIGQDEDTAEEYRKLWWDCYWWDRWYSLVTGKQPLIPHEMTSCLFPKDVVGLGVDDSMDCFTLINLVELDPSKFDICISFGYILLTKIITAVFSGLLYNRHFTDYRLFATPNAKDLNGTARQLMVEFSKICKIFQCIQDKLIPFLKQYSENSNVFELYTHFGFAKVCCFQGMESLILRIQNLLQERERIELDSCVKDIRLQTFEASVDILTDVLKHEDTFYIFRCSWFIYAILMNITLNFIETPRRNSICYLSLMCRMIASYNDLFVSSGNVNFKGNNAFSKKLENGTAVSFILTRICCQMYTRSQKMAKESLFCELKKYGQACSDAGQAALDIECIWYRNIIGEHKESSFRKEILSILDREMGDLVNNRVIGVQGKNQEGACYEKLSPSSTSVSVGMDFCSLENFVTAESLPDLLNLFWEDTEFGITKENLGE
Experimental: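 Universal 'all 10-mer' protein binding microarrays (Agilent AMADID 015681) probed with GST-tagged S. cerevisiae TFs (full-length or DBD) made by in vitro transcription/translation (PURExpress), about 100-200 nM. Bound TF was detected with fluorescent anti-GST. Each ungapped 8-mer (which stands for itself and its reverse complement) is scored by the PBM enrichment score (E-score), a modified Wilcoxon-Mann-Whitney statistic from -0.5 to +0.5, computed with the Universal PBM Analysis Suite. Scale: above 0.35 generally sequence-specific binding.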

Sequence | PBM E-score
AGTAATGA | 0.0496
CGCGCCTC | 0.013
AGTAGATA | 0.237
ACACCAAA | 0.178
GCTGGAAC | -0.0789
GCACGTGC | 0.193
CGGATTCC | 0.212
AGGTAACC | -0.106
CAGAGGTC | -0.25
GAGGGCGA | -0.28
CTGATTCC | 0.0371
AAGCACGA | 0.0242
CACGCCAC | -0.22
CGTCACGC | -0.051
AAAACAAA | 0.259
GCATTTAC | -0.00693
AATAGTTG | 0.0156
CCCGATCC | -0.106
CCAAACGC | -0.14
TGGGTAAA | -0.0372
AATGGGAG | -0.182
ACGTTGTG | 0.0349
CGGCGACA | 0.221
GAGAAATC | 0.128
ACGTCTCC | -0.0377

Sequence | PBM E-score
GACTCCGA | -0.0256
GCCGACAA | 0.239
ATCTTTGA | 0.107
GTCTTGAA | 0.096
AAGACTAG | -0.173
CTTCAGCA | -0.137
AAGCCCGT | -0.25
TAAAAACA | 0.233
GCACAGCC | 0.00143
ACCCGATG | 0.0436
CTAGGGTA | -0.203
ACCTCGAC | 0.119
GTTCCAAA | 0.158
AATAGCAG | -0.148
AATCGGTG | -0.0533
ATTCTATC | 0.0658
AGGACACC | 0.0367
GATCATGC | -0.104
AGGTGGGA | -0.316
AATAAACA | 0.123
GGCATATA | 0.2
ACCGCTGA | 0.0368
AAAGTGGG | -0.101
AATTATAT | 0.234
AGAACAAA | 0.349

Sequence | PBM E-score
CGCGCGAG | 0.0573
CAGCTAGC | -0.152
TTTAGAAA | 0.18
CGATCTCC | 0.0574
CGGTTTAC | 0.116
AGTCCTGA | -0.0683
GCTCTATA | -0.0239
AATGGACT | -0.174
CTGACTGA | -0.216
CGGAACCG | 0.364
CGTAACCA | -0.0639
CCTTCCCC | -0.171
ACACCAGA | 0.0624
CCAAGGGC | -0.205
AAACGTTA | 0.134
CACGAGAG | -0.0761
AATGGGAT | -0.142
GACCTGAA | 0.0833
CTAATCTC | 0.063
TCAGCTAA | -0.0281
CGCATGTC | -0.211
GATACATA | 0.153
CTGAGGCA | -0.107
AACGATAT | 0.241
CGTAAAAG | 0.154

Sequence | PBM E-score
CGATGCGC | -0.0469
CAACTCAA | 0.179
AAAATCCG | 0.259
ATACTATA | 0.125
AAAATCGA | 0.0696
GCGTCTGA | -0.0195
ATGATGGG | -0.267
AACCGTGT | 0.0684
AGTGCCGG | 0.337
GTTTGCCA | -0.0315
AAACCCAT | 0.0274
ACGAGACG | -0.123
AGCTTGAT | -0.0956
CACTAAGC | -0.132
ATAGCAAG | -0.0366
GCGTCAAC | -0.17
GTTAGTCA | 0.00257
CACGCAAG | 0.0177
ACTGCACC | 0.0615
CGGGGACA | -0.0645
TAGTCAAA | 0.0998
CATTGAGC | -0.0551
ACGGTCCT | -0.193
CGAAGAGC | 0.12
CGATCTTA | -0.0292

Sequence | PBM E-score
TTACGGAA | 0.355
CTTAAGAC | 0.0397
CCGCGTAA | 0.011
ATGCGCTA | -0.125
CCCACGTC | -0.117
AATGAGGG | -0.254
GACAAAGC | 0.138
CTTGCACA | -0.0667
CGCGGCAG | 0.167
ACTGTTTC | -0.0863
ACCTATCT | -0.205
AGCCCGAC | -0.206
GACCCCTA | -0.351
GATCGAGC | 0.18
CAGTTCCG | 0.199
AAATTTGG | -0.0662
ATAAGCGC | -0.137
ATGAGTCC | -0.0586
AGAGCCAT | -0.101
GCCAGTCC | -0.134
CTGCACTC | -0.0866
AGACCCCG | 0.08
AGCTGGTC | -0.113
AACCTATA | 0.15
CGTCTAAG | -0.0836

Part of the list above, in CSV form:
Sequence,PBM E-score
CTTAAGAC,0.0397
CCGCGTAA,0.011
ATGCGCTA,-0.125
CCCACGTC,-0.117
AATGAGGG,-0.254
GACAAAGC,0.138
CTTGCACA,-0.0667

Next records

Sequence | PBM E-score
ACTGTCCA | -0.0181
CCAAGACG | -0.187
CTTGTCGA | -0.0619
AGCCTAAG | -0.178
ACCTGGAT | -0.249
TATCGATA | 0.0839
GGAGTAGA | 0.00565
ACGCGTAT | 0.0402
ATCGACAG | -0.0255
GTTGTCTA | 0.0693
CACACAGA | 0.14
CCTCGACC | -0.0725
CTCAGCGA | 0.00511
CCGGATGA | 0.335
AAGCGTGA | -0.0764
AGCAAGCC | -0.0802
CAAACGAA | 0.0711
ATGAGGTC | -0.107
AGTGGTCA | -0.0391
CCACCCGG | 0.129
AACAAACT | 0.277
ACTCAAAG | -0.0425
CGTCGAAC | -0.125
AGACAAAC | 0.0187
CTAGTGGC | -0.242

Sequence | PBM E-score
AACAGGTA | -0.105
AATAGGCC | -0.0377
ACATGCAG | -0.0848
CTACCGAG | 0.017
CTTTAATA | 0.245
GCACCTTA | 0.00446
CAGGATTC | -0.107
AGCGCAGG | -0.17
CGCGAAGC | 0.091
CGATCACG | 0.165
CGGCCACG | -0.0401
ACAGTCTC | -0.207
CGGACTAC | 0.139
CAGCAGGC | 0.117
ACTTAGAG | -0.224
CTCGCAGA | -0.176
ATCCTACC | -0.127
AGCCGGTG | 0.225
GAGGGTAC | -0.308
AGGTGATC | -0.0596
ACGTCCAT | -0.016
GGAATTGA | 0.143

Retrieved one by one from above, 4 records:
Sequence | PBM E-score
GTCTTGAA | 0.096
AATGGGAT | -0.142
AGTCCTGA | -0.0683
AGTAATGA | 0.0496
